{"source": "PubChem BioAssay AID330", "about": "(DTP/NCI, 2004)", "test_system": "P388 leukemia ip, CD2F1 mice, survival T/C", "experiment": "NCI In Vivo Anticancer Drug Screen. Data for tumor model P388 Leukemia (intraperitoneal) in CD2F1 (CDF1) mice", "details": "T/C endpoint: median survival time, higher T/C = longer survival", "key": {"[1]": {"details": "dose: 25.0 mg/kg/injection, schedule: Q01DX009 (ip), vehicle: Klucel (hydroxypropylcellulose) (HPC)"}, "[2]": {"details": "dose: 50.0 mg/kg/injection, schedule: Q01DX009 (ip), vehicle: Klucel (hydroxypropylcellulose) (HPC)"}, "[3]": {"details": "dose: 200.0 mg/kg/injection, schedule: Q01DX009 (ip), vehicle: saline"}, "[4]": {"details": "dose: 240.0 mg/kg/injection, schedule: Q01DX005 (ip), vehicle: Klucel (hydroxypropylcellulose) (HPC)"}, "[5]": {"details": "dose: 200.0 mg/kg/injection, schedule: Q01DX009 (ip), vehicle: Klucel (hydroxypropylcellulose) (HPC)"}}, "note": "The list is a part of this screen's results and no random one: it is rich in T/C values a quarter to a half above the control, in often repeated tests (any T/C) and in doses without a T/C. Further doses and runs are listed elsewhere. T/C: endpoint of the treated group in % of that of the vehicle group. Some doses have a count of surviving animals in place of a T/C: the source holds a T/C of zero for them, seemingly a mark for toxic or unscored doses. Some survivor counts are full or nearly so, which does not show that the dose was tolerated: the source hardly ever lists a survival T/C far under the control, and the zero likely stands for such cases as well. Counts of survivors are from the toxicity check (mostly the fifth day) where no day follows; animals may have died later. Schedules are NCI's codes, read here as Q, the interval in days (D) or hours (H), X, the number of doses. Some doses were run more than once; the results are listed from low to high. For survival time, this PubChem deposit counts one and a half times the control or more as active, and values a quarter to a half above the control carry no call in these data; other NCI protocols may use other cut-offs.", "data": [{"smiles": "COC(=O)c1cc2cc3c(c(O)c2c(=O)o1)OC1(Cc2c(O)c4c(c(O)c2O1)C(=O)C(OC)CC4=O)CC3O", "note": "(centres undefined)", "values": [{"measurement": "survivor count", "setting": "dose: 100.0 mg/kg/injection, schedule: Q01DX009 (ip), vehicle: saline with Tween-80", "value": "4 of 6 and 6 of 6"}, {"measurement": "survivor count", "setting": "dose: 200.0 mg/kg/injection, schedule: Q01DX009 (ip), vehicle: saline with Tween-80", "value": "5 of 6"}, {"measurement": "survivor count", "setting": "dose: 400.0 mg/kg/injection, schedule: Q01DX009 (ip), vehicle: saline with Tween-80", "value": "2 of 6"}]}, {"smiles": "O=C1NC(=O)C2=C1CCCC2Br", "note": "(centres undefined)", "values": [{"measurement": "survivor count", "setting": "dose: 25.0 mg/kg/injection, schedule: Q01DX009 (ip), vehicle: distilled water + Tween-80", "value": "2 of 6"}, {"measurement": "survivor count", "setting": "dose: 50.0 mg/kg/injection, schedule: Q01DX009 (ip), vehicle: distilled water + Tween-80", "value": "0 of 6"}, {"measurement": "survivor count", "setting": "dose: 100.0 mg/kg/injection, schedule: Q01DX009 (ip), vehicle: distilled water + Tween-80", "value": "0 of 6"}]}, {"smiles": "COc1cccc2c1C(=O)c1c(O)c3c(c(O)c1C2=O)C[C@@](O)(/C(CO)=N/NC(=O)c1ccc(Cl)c(Cl)c1)C[C@@H]3OC1CC(NC(=S)Nc2ccc(F)cc2)C(O)C(C)O1", "note": "(some centres undefined)", "values": [{"measurement": "survivor count", "setting": "dose: 1.56 mg/kg/injection, schedule: Q01DX009 (ip), vehicle: water", "value": "6 of 6"}, {"measurement": "T/C", "setting": "dose: 1.6 mg/kg/injection, schedule: Q01DX009 (ip), vehicle: water", "value": "127 % of control"}, {"measurement": "survivor count", "setting": "dose: 3.13 mg/kg/injection, schedule: Q01DX009 (ip), vehicle: water", "value": "6 of 6"}, {"measurement": "survivor count", "setting": "dose: 6.25 mg/kg/injection, schedule: Q01DX009 (ip), vehicle: water", "value": "6 of 6"}]}, {"smiles": "CC(/C=C/c1ccc(Cl)cc1)=N\\NC(N)=S", "values": [{"measurement": "survivor count", "setting": "dose: 60.0 mg/kg/injection, schedule: Q01DX005 (ip), vehicle: saline with Tween-80", "value": "0 of 6"}, {"measurement": "survivor count", "setting": "dose: 120.0 mg/kg/injection, schedule: Q01DX005 (ip), vehicle: saline with Tween-80", "value": "0 of 6"}, {"measurement": "survivor count", "setting": "dose: 240.0 mg/kg/injection, schedule: Q01DX005 (ip), vehicle: saline with Tween-80", "value": "0 of 6"}]}, {"smiles": "COc1ccc2c(Nc3ccc(NS(C)(=O)=O)cc3)c3ccccc3nc2c1", "values": [{"measurement": "T/C", "setting": "dose: 0.18 mg/kg/injection, schedule: Q01DX009 (ip), vehicle: saline with Tween-80", "value": "138 % of control"}, {"measurement": "T/C", "setting": "dose: 0.27 mg/kg/injection, schedule: Q01DX009 (ip), vehicle: saline with Tween-80", "value": "138 % of control"}, {"measurement": "T/C", "setting": "dose: 0.4 mg/kg/injection, schedule: Q01DX009 (ip), vehicle: saline with Tween-80", "value": "138 % of control"}, {"measurement": "T/C", "setting": "dose: 0.6 mg/kg/injection, schedule: Q01DX009 (ip), vehicle: saline with Tween-80", "value": "149 % of control"}, {"measurement": "T/C", "setting": "dose: 1.25 mg/kg/injection, schedule: Q01DX009 (ip), vehicle: saline with Tween-80", "value": "145 % of control"}, {"measurement": "T/C", "setting": "dose: 1.65 mg/kg/injection, schedule: Q04DX003 (ip), vehicle: saline with Tween-80", "value": "125 % of control"}, {"measurement": "T/C", "setting": "dose: 2.5 mg/kg/injection, schedule: Q04DX003 (ip), vehicle: saline with Tween-80", "value": "128 % of control"}, {"measurement": "T/C", "setting": "dose: 3.75 mg/kg/injection, schedule: Q04DX003 (ip), vehicle: saline with Tween-80", "value": "144 % of control"}, {"measurement": "T/C", "setting": "dose: 8.8 mg/kg/injection, schedule: Q04DX003 (ip), vehicle: saline with Tween-80", "value": "131 % of control"}, {"measurement": "survivor count", "setting": "dose: 37.5 mg/kg/injection, schedule: Q01DX009 (ip), vehicle: saline with Tween-80", "value": "6 of 6"}, {"measurement": "survivor count", "setting": "dose: 75.0 mg/kg/injection, schedule: Q01DX009 (ip), vehicle: saline with Tween-80", "value": "6 of 6"}]}, {"smiles": "COC(=O)C1=COC(C)C2CN3CCc4cc(OC)c(OC)cc4C3CC12", "note": "(centres undefined)", "values": [{"measurement": "survivor count", "setting": "dose: 100.0 mg/kg/injection, schedule: Q04DX002 (ip), vehicle: saline with Tween-80", "value": "0 of 6"}, {"measurement": "survivor count", "setting": "dose: 200.0 mg/kg/injection, schedule: Q04DX002 (ip), vehicle: saline with Tween-80", "value": "0 of 6"}, {"measurement": "survivor count", "setting": "dose: 400.0 mg/kg/injection, schedule: Q04DX002 (ip), vehicle: saline with Tween-80", "value": "0 of 6"}]}, {"smiles": "C/C(=N/NC(=O)c1ccccc1)c1ccc(Cl)cc1Cl", "values": [{"measurement": "survivor count", "setting": "[1]", "value": "6 of 6"}, {"measurement": "survivor count", "setting": "[2]", "value": "6 of 6"}]}, {"smiles": "COCC(=O)O", "values": [{"measurement": "survivor count", "setting": "[3]", "value": "2 of 6"}, {"measurement": "survivor count", "setting": "dose: 400.0 mg/kg/injection, schedule: Q01DX009 (ip), vehicle: saline", "value": "0 of 6"}]}, {"smiles": "Cc1c[n+]2ccc3ccccc3c2c2ccccc12", "values": [{"measurement": "T/C", "setting": "dose: 5.0 mg/kg/injection, schedule: Q01DX009 (ip), vehicle: Klucel (hydroxypropylcellulose) (HPC)", "value": "133 % of control"}, {"measurement": "survivor count", "setting": "dose: 7.5 mg/kg/injection, schedule: Q01DX009 (ip), vehicle: Klucel (hydroxypropylcellulose) (HPC)", "value": "3 of 6"}, {"measurement": "survivor count", "setting": "dose: 10.0 mg/kg/injection, schedule: Q01DX009 (ip), vehicle: Klucel (hydroxypropylcellulose) (HPC)", "value": "0 of 6"}, {"measurement": "survivor count", "setting": "dose: 20.0 mg/kg/injection, schedule: Q01DX009 (ip), vehicle: Klucel (hydroxypropylcellulose) (HPC)", "value": "0 of 6"}]}, {"smiles": "CCN(CC)Cc1c(O)ccc2c3c(c(=O)oc12)CCCC3", "values": [{"measurement": "survivor count", "setting": "dose: 64.0 mg/kg/injection, schedule: Q01DX009 (ip), vehicle: Klucel (hydroxypropylcellulose) (HPC)", "value": "2 of 5"}]}, {"smiles": "COC1=C(C#N)C(c2ccccc2)CC(N)=N1", "note": "(centres undefined)", "values": [{"measurement": "survivor count", "setting": "[4]", "value": "1 of 6"}]}, {"smiles": "Cc1cccc([NH-])n1.Cc1cccc([NH-])n1.Cc1cccc([NH-])n1.Cc1cccc([NH-])n1.[Cl][Rh][Cl]", "values": [{"measurement": "survivor count", "setting": "dose: 100.0 mg/kg/injection, schedule: Q01DX009 (ip), vehicle: saline", "value": "5 of 6"}, {"measurement": "survivor count", "setting": "[3]", "value": "0 of 6"}]}, {"smiles": "CC1(C)CC(=O)C(C(c2ccc3c(c2)OCO3)N2CCOCC2)C(=O)C1", "note": "(centres undefined)", "values": [{"measurement": "survivor count", "setting": "[4]", "value": "1 of 6"}]}, {"smiles": "COC(CNC(=O)Nc1cccnc1)[CH2][Hg][Cl]", "note": "(centres undefined)", "values": [{"measurement": "survivor count", "setting": "dose: 100.0 mg/kg/injection, schedule: Q04DX003 (ip), vehicle: saline with Tween-80", "value": "1 of 6"}]}, {"smiles": "C=CCOc1c2c(cc3ccc(=O)oc13)CC=CO2", "values": [{"measurement": "survivor count", "setting": "[5]", "value": "2 of 6"}]}, {"smiles": "CC1CCC(C(=O)C(Cl)Cc2ccccc2)CC1", "note": "(centres undefined)", "values": [{"measurement": "survivor count", "setting": "dose: 200.0 mg/kg/injection, schedule: Q01DX005 (ip), vehicle: Klucel (hydroxypropylcellulose) (HPC)", "value": "3 of 6"}]}, {"smiles": "C[As](C)SCCC(N)C(=O)NC(CCS[As](C)C)C(=O)O", "note": "(centres undefined)", "values": [{"measurement": "T/C", "setting": "[1]", "value": "125 % of control"}, {"measurement": "T/C", "setting": "[2]", "value": "125 and 133 % of control"}, {"measurement": "T/C", "setting": "dose: 100.0 mg/kg/injection, schedule: Q01DX009 (ip), vehicle: Klucel (hydroxypropylcellulose) (HPC)", "value": "131 and 144 % of control"}, {"measurement": "survivor count", "setting": "[5]", "value": "5 of 6"}]}, {"smiles": "NC(=S)c1ncn(C2OC(COC=O)C(OC=O)C2OC=O)c1NC=O", "note": "(centres undefined)", "values": [{"measurement": "T/C", "setting": "dose: 50.0 mg/kg/injection, schedule: Q01DX005 (ip), vehicle: saline with Tween-80", "value": "133 % of control"}, {"measurement": "T/C", "setting": "dose: 100.0 mg/kg/injection, schedule: Q01DX005 (ip), vehicle: saline with Tween-80", "value": "136 % of control"}]}]}
